Experimental data: PMC9225994
These are yes or no findings as the source states them, for the method shown. Some binding calls cover weakened binding; strength is not graded here.

The chains behind the UniProt entries cited, without tags or fusion partners. Where a name states a change or a piece, a line headed by the entry shows the natural chain unless it says otherwise.
UniProt Q01094: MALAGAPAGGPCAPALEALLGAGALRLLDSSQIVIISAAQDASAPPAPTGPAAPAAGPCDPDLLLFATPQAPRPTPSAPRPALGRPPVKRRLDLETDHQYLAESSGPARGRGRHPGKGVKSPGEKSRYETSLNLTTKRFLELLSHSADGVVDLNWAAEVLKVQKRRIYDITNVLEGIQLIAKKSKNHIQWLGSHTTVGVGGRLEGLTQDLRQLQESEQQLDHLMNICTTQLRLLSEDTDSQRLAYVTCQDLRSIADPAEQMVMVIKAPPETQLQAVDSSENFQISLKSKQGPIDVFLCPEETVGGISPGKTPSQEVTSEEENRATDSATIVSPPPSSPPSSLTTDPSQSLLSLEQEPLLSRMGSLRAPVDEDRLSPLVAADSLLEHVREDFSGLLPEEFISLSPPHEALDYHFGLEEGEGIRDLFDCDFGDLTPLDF

Molecular target: E2F complexes (E2F1 co-expressed with DP1) (UniProt Q01094)
Assay: native gel or EMSA; nuclear extracts of Q2bn fibroblasts transfected with pCMV-E2F1, pCMV-DP1 and pcDNA3-CEBPE as indicated, 24 h; E2F probe derived from the DHFR promoter (and a CEBP probe); anti-CEBPE Ab (H-75)

B1: CEBPE (CCAAT/enhancer-binding protein epsilon), full-length human (protein, UniProt Q15744 1-281)
chain: MSHGTYYECEPRGGQQPLEFSGGRAGPGELGDMCEHEASIDLSAYIESGEEQLLSDLFAVKPAPEARGLKGPGTPAFPHYLPPDPRPFAYPPHTFGPDRKALGPGIYSSPGSYDPRAVAVKEEPRGPEGSRAASRGSYNPLQYQVAHCGQTAMHLPPTLAAPGQPLRVLKAPLATAAPPCSPLLKAPSPAGPLHKGKKAVNKDSLEYRLRRERNNIAVRKSRDKAKRRILETQQKVLEYMAENERLRSRVEQLTQELDTLRNLFRQIPEAANLIKGVGGCS
**Q.** For B1, which binding is on record?
**A.** binds
